Experimental data reported in article PMC5738357.
No constants are given. Whether binding was seen depends on the method and setting. Binding seen in cells or lysates may run through a third protein. Binding can be weak; no strength is given.

Protein sequences, listed by entry. Tags and fused reporters are not part of them. Lines headed by an entry give the natural chain unless they say otherwise; changes in a name come on top.
UniProt P39938: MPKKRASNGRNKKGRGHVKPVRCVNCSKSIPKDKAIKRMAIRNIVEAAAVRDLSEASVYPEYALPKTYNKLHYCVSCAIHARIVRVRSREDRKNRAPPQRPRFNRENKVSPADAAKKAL

Target: T1, Asc1-FTpA (S. cerevisiae) (UniProt P38011)
T1 sequence: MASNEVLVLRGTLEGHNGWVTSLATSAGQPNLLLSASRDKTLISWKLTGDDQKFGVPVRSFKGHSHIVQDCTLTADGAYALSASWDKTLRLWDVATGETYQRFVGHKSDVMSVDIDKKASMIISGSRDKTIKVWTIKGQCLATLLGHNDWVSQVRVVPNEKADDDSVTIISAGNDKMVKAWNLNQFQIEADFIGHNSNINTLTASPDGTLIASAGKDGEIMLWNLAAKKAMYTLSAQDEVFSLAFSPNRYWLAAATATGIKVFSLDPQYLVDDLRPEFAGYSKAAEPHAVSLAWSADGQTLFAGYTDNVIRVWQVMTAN
Assay: co-IP; tandem affinity-purification of FTpA-tagged yeast baits (IgG Sepharose, TEV, Flag agarose); western blotting of the Flag eluates; cells with or without depletion of Dim2 or Krr1 where told

binding: binds
Substance: Rps26 (from UniProt P39938)
